Test [1] concerns the target Bovine serum albumin (bovine) (UniProt P02769). As to the kind of experiment: electrolyte-gated organic thin-film transistor (SiMoT) response; BSA-functionalized gold gate incubated 10 min in human saliva progressively diluted in PBS (up to 1:10^15), from the more diluted to the more concentrated; endogenous CRP; only the target purified.
Test [2] has the same target. Briefly: electrolyte-gated organic thin-film transistor (SiMoT) response; BSA-functionalized gold gate incubated 10 min in 100 μl of PBS standard solutions of CRP, nominal 6 zM to 6 10^14 zM; PBS pH 7.4, ionic strength 162 mM; RT 20–22 °C; washed, then transfer curves measured; three gates; both purified.

Amino acid sequences for entries named in this document (tags omitted). Residues count along the entry.
UniProt P02769, residues 25-607: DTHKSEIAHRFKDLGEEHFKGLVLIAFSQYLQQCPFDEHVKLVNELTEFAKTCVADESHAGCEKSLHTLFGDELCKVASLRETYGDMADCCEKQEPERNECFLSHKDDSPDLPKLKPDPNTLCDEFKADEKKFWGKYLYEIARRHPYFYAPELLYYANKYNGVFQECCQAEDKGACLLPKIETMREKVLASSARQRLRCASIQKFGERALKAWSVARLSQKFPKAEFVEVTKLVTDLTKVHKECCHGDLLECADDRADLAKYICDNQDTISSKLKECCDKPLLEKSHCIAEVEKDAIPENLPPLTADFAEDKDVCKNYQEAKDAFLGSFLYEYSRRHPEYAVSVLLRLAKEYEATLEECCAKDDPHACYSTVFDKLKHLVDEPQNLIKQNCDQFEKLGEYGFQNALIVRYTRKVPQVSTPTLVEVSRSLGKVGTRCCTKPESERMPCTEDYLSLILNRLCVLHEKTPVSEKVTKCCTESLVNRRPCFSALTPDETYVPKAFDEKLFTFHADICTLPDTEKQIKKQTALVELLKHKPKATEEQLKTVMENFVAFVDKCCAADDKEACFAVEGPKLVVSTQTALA

No constants are given. Whether binding was seen depends on the method and setting.

B1: Human C-reactive protein (protein, UniProt P02741 19-224)
chain: QTDMSRKAFVFPKESDTSYVSLKAPLTKPLKAFTVCLHFYTELSSTRGYSIFSYATKRQDNEILIFWSKDIGYSFTVGGSEILFEVPEVTVAPVHICTSWESASGIVEFWVDGKPRVRKSLKKGYTVGAEASIILGQEQDSFGGNFEGSQSLVGDIGNVNMWDFVLSPDEINTIYLGGPFSPNVLNWRALKYEVQGEVFTKPQLWP
B1: the binding entry is “no binding” in test [1] and “no binding (tested: 6 10^14 zM (600 pM))” in test [2].

(Values after paper PMC6611741.)
